Measurements taken from PubChem BioAssay AID504444 (National Center for Advancing Translational Sciences (NCATS), 2011).
The whole screen tested about 360,000 compounds, of which about 7,500 (2.1%) were called active. Inconclusive results, whose numbers are uncertain, are shown with a selection of clear calls. Calls follow the shape of the dose curve; as a rule, active = well fitted inhibition curve with a large enough effect; inconclusive = small, poorly fitted or top-dose-only effect, or effect the other way; inactive = flat fitted curve, though single readings scatter. Potencies of inconclusive entries are doubtful fits and often do not repeat.

Experiment: Nrf2 qHTS screen for inhibitors; also: nearly all actives have a fitted effect of over 60% in size
Settings: A549 ARE-Fluc reporter, luciferase luminescence, 18-24 h; series mostly up to 46 µM
Method in brief: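 Reporter: ARE-Fluc in A549. Exposure: 18-24 h, 37 °C, 5% CO2, 5% FBS OPTI-MEM. Readouts: fluorescent cytotoxicity (CellTiter-Fluor), then luminescent Nrf2 signal after BugLite.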
Potency is read from the fitted curve at half-maximal effect.

| SMILES | Potency |
| --- | --- |
| CC1CCCC(NC(=O)c2ccc3c(=O)n(CC4CCCO4)c(=O)[nH]c3c2)C1C (stereo not given) | inactive |
| Cc1nn(CCOc2ccccc2)c(=O)n1-c1ccccc1 | inconclusive: 23.1 µM [activator, single point] |
| CCOc1ccc(Br)cc1/C(C)=N\NC1=NCCN1 | inconclusive: 2.31 µM [falling, full curve, poor fit] |
| CN1CCN(C(=O)Cn2ncc3c4ccccc4n(Cc4ccc(F)cc4)c3c2=O)CC1 | inactive |
| Cn1c(=O)c2cc(C(=O)NC3CCCCCC3)sc2c2ccccc21 | active: 18.4 µM |
| CCOC(=O)C1=C(C)N(C)C(=S)NC1c1ccc(Cl)cc1Cl (stereo not given) | inconclusive: 18.4 µM [falling, single point] |
| CCn1nc(C)cc1C(=O)N1CCCC(C(=O)c2ccccc2SC)C1 (stereo not given) | inconclusive: 20.6 µM [falling, single point] |
| CCCc1ccc(NS(=O)(=O)c2c(C)oc(C)c2C(=O)OC)cc1 | inconclusive: 16.4 µM [falling, single point] |
| Cc1ccc(NS(=O)(=O)c2ccc(C(=O)N3CCCN(C)CC3)cc2)cc1 | inactive |
| C=C(C)Cn1c(C)cc(C)c(S(=O)(=O)c2ccc(C)cc2)c1=O | inconclusive: 29.1 µM [falling, single point] |
| O=C(Nc1ccc(N=Nc2ccccc2)cc1)c1ccccc1Cl | inconclusive: 16.4 µM [activator, partial curve, poor fit] |
| COc1cccc(/C=N/Nc2ncnc3scc(-c4ccccc4)c23)c1O | inconclusive: 29.1 µM [falling, single point] |
| CCc1nnc(N/N=C\c2ccc(OC(C)=O)c(OC)c2)n1N | inconclusive: 0.058 µM [falling, partial curve, poor fit] |
| CC(C)CC(=O)NC(=S)NNC(=O)c1cccc([N+](=O)[O-])c1 | inconclusive: 29.1 µM [falling, single point] |
| Cc1cc(NCc2ccccn2)nc2ccccc12 | inactive |
| O=C(NNC(=O)c1ccccc1Br)c1cccs1 | inconclusive: 16.4 µM [activator, partial curve] |
| O=C(O)c1cccc(CSc2nnc(-c3ccc(Cl)cc3)o2)c1 | active: 9.2 µM |
| O=C1CSC(c2cccc(O)c2)N1Cc1ccccc1 (stereo not given) | inconclusive: 32.6 µM [falling, partial curve, poor fit] |
| NS(=O)(=O)c1ccc(Nc2nc(-c3ccc4ccccc4c3)cs2)cc1 | inconclusive: 23.1 µM [falling, single point] |
| O=C(Cn1ncc2c3ccccc3n(Cc3ccccc3)c2c1=O)NC1CCCCCC1 | inconclusive: 20.6 µM [activator, single point] |
| COc1ccccc1N1CCN(C(=O)C2CCN(S(=O)(=O)c3ccc4c(c3)CC(C)N4C(=O)C3CC3)CC2)CC1 (stereo not given) | active: 25.9 µM |
| Cn1ccnc1C(O)c1cc(C(C)(C)C)c(O)c(C(C)(C)C)c1 (stereo not given) | inactive |

Two consecutive records out of the list so far, quoted:

| SMILES | Potency |
| --- | --- |
| O=C(Nc1ccc(N=Nc2ccccc2)cc1)c1ccccc1Cl | inconclusive: 16.4 µM [activator, partial curve, poor fit] |
| COc1cccc(/C=N/Nc2ncnc3scc(-c4ccccc4)c23)c1O | inconclusive: 29.1 µM [falling, single point] |

Remaining list, next part:

| SMILES | Potency |
| --- | --- |
| CC12CC(NC(=O)N1CCc1ccccc1)c1cc(Cl)ccc1O2 (stereo not given) | inconclusive: 29.1 µM [falling, single point] |
| O=C(COC(=O)c1ccc(O)cc1O)Nc1ccc2c(c1)OCCO2 | inconclusive: 29.1 µM [activator, single point] |
| CC(=O)c1cc2c(cc1NC(=O)Cn1nc(-c3ccc(C)cc3)ccc1=O)OCO2 | inactive |
| COc1ccc(N2CC(C(=O)N(C)CC(=O)Nc3ccc(Cl)c(C(F)(F)F)c3)CC2=O)c(OC)c1 (stereo not given) | inconclusive: 20.6 µM [falling, single point] |
| COc1ccc(-c2cc(-c3ccccc3O)[nH]n2)cc1 | inconclusive: 0.58 µM [activator, full curve, poor fit] |
| Cc1ccc(NC(=O)C2CCCN(S(=O)(=O)c3ccc4[nH]c(=O)ccc4c3)C2)c(C)c1 (stereo not given) | inactive |
| CC(C)(C)c1nnc(NC(=O)C2CC(=O)N(CCc3ccc(F)cc3)C2)s1 (stereo not given) | inconclusive: 25.9 µM [falling, single point] |
| O=C(Nc1ccc(Sc2ccc(Br)cc2)cc1)c1ccco1 | inconclusive: 25.9 µM [falling, partial curve, poor fit] |
| O=C(CCl)N(c1ccccc1)C1CCS(=O)(=O)C1 (stereo not given) | active: 23.1 µM |
| COc1ccccc1N1C(=O)c2cccc3cccc(c23)C1=O | inconclusive: 0.103 µM [falling, full curve, poor fit] |
| COc1ccc(NC(=O)c2ccc(OC(=S)N(C)c3ccc(OC)cc3)cc2)cc1 | inconclusive: 1.03 µM [activator, partial curve, poor fit] |
| COC(=O)C1(Cc2cc(-c3ccc([N+](=O)[O-])cc3)no2)CCN(C(=O)OC(C)(C)C)CC1 | inconclusive: 29.1 µM [falling, single point] |
| COc1ccccc1CN(C)C(=O)C(c1ccccc1)c1ccccc1 | inconclusive: 18.4 µM [falling, single point] |
| CC(=O)N(Cc1cccc(Br)c1)c1ccc(N2CCOCC2)c(Cl)c1 | inconclusive: 18.4 µM [falling, single point] |
| COc1ccc(OC)c(C(=O)COC(=O)c2c(OC)cccc2OC)c1 | inactive |
| Cc1c(C(=O)Nc2cccc(C(F)(F)F)c2)oc2ccc(S(=O)(=O)N3CCOCC3)cc12 | inconclusive: 9.2 µM [falling, partial curve, poor fit] |
| COc1ccc(-c2cn3c(n2)sc2cc(C(=O)NCc4cccc(F)c4)ccc23)cc1 | inconclusive: 29.1 µM [activator, single point] |
| Cc1ccc(Cn2ccc(=O)c(OCc3ccccc3)c2C)cc1 | inconclusive: 20.6 µM [activator, partial curve] |
| Cc1ccc(NC(=O)Cn2c(=O)n(Cc3ccc4c(c3)OCO4)c(=O)c3ccccc32)cc1 | inactive |
| Cc1cccc(NC(=O)c2cc3c(s2)-c2c(C)cccc2OC3)n1 | inconclusive: 29.1 µM [falling, single point] |
| Cc1ccc(NC(=S)Nc2ccc3cn[nH]c3c2)c(C)c1 | inconclusive: 29.1 µM [activator, single point] |
| O=C(CCC1N=C2c3ccccc3N=C(SCc3ccccc3Cl)N2C1=O)NCc1ccco1 (stereo not given) | active: 18.4 µM |

2 entries from above in a different format.
SMILES | Potency
COc1ccc(N2CC(C(=O)N(C)CC(=O)Nc3ccc(Cl)c(C(F)(F)F)c3)CC2=O)c(OC)c1 (stereo not given) | inconclusive: 20.6 µM [falling, single point]
COc1ccc(-c2cc(-c3ccccc3O)[nH]n2)cc1 | inconclusive: 0.58 µM [activator, full curve, poor fit]

Later entries:

| SMILES | Potency |
| --- | --- |
| COc1ccc2sc3ccccc3c(=O)c2c1OC | inconclusive: 20.6 µM [activator, partial curve] |
| Cc1ccc(NS(=O)(=O)c2cccc(C(=O)NCc3ccccn3)c2)cc1 | inconclusive: 23.1 µM [falling, partial curve, poor fit] |
| Cc1oc2c(cc(NS(=O)(=O)c3ccc(Cl)cc3)c3ccccc32)c1C(=O)OCc1ccccc1 | inactive |
| C=CCn1c(SCC(=O)c2[nH]c(C)c(C(=O)OCC)c2C)nc2scc(-c3ccc(OC)cc3)c2c1=O | inconclusive: 2.31 µM [falling, full curve, poor fit] |
| Cc1csc2ncc(C(=O)Nc3ccccc3F)c(=O)n12 | inconclusive: 5.8 µM [activator, partial curve, poor fit] |
| O=C(CSc1ncccn1)NC(=O)c1ccccc1 | inconclusive: 18.4 µM [falling, partial curve, poor fit] |
| Cc1[nH]n2c(=O)c3c(nc2c1-c1ccc(Cl)cc1)CCC3 | inconclusive: 11.6 µM [falling, partial curve] |
| CC1CCC/C(=N\NC(=O)COc2ccccc2Cl)C1 (stereo not given) | inactive |
| CCOc1ccc(NC(=O)C(=O)NCC(c2cccnc2)N2CCc3ccccc32)cc1 (stereo not given) | inconclusive: 2.31 µM [activator, full curve, poor fit] |
| O=C(Nc1cccc(Cl)c1)Nc1nnc(CC2=CCCCC2)s1 | inconclusive: 29.1 µM [falling, single point] |
| COc1ccc(C2CC(=O)N(CC(=O)Nc3ccc(C)c(Cl)c3)c3ccccc3S2)cc1OC (stereo not given) | inconclusive: 32.6 µM [falling, single point] |
| CN(C)S(=O)(=O)c1ccc(Cl)c(NC(=O)COC(=O)CC(NC(N)=O)c2ccc(Cl)cc2)c1 (stereo not given) | inconclusive: 29.1 µM [falling, single point] |
| CCOc1ccc2nc(NC(=O)CSc3nnc(-c4ccncc4)n3CC3CCCO3)sc2c1 (stereo not given) | inconclusive: 5.17 µM [activator, partial curve] |
| COc1ccc(N(Cc2cccs2)C(=O)Nc2cccc(Cl)c2)cc1 | inconclusive: 29.1 µM [falling, single point] |
| CCCn1c(=O)c2c(nc3n2CCCN3CCc2ccc(OC)c(OC)c2)n(C)c1=O | inconclusive: 7.31 µM [falling, partial curve, poor fit] |
| CC(C)Cc1cc(C(=O)N2N=C(C(F)F)CC2(O)C(F)F)c2ccccc2n1 (stereo not given) | inconclusive: 18.4 µM [falling, single point] |
| Cc1noc(C)c1CSc1nc2ccccc2nc1NS(=O)(=O)c1ccc(Cl)cc1 | active: 9.2 µM |
| O=C(COc1ccc(Br)cc1)Nc1ccncc1 | inconclusive: 14.6 µM [falling, partial curve] |
| O=c1c2ccccc2nnn1CSc1nc2ccccc2c(=O)n1Cc1ccco1 | inconclusive: 13 µM [falling, partial curve, poor fit] |
| CCC(CC)N=C1NS(=O)(=O)c2cc([N+](=O)[O-])ccc21 | inconclusive: 2.59 µM [falling, full curve, poor fit] |
| Cc1ccc(C)c(NC(=O)CSc2nc3c(c(=O)n2C)SC(C)C3)c1 (stereo not given) | inconclusive: 10.3 µM [falling, partial curve, poor fit] |
